No constants are given. Whether binding was seen depends on the method and setting. In cells and extracts the contact can be indirect. A yes stands for co-enrichment or nearness to the bait. Other partners may have been found. Tags and fused reporters may be left off the sequences shown.
Biological target: T1, SMG7-MYC (Arabidopsis thaliana) (UniProt A9QM73)
T1 sequence: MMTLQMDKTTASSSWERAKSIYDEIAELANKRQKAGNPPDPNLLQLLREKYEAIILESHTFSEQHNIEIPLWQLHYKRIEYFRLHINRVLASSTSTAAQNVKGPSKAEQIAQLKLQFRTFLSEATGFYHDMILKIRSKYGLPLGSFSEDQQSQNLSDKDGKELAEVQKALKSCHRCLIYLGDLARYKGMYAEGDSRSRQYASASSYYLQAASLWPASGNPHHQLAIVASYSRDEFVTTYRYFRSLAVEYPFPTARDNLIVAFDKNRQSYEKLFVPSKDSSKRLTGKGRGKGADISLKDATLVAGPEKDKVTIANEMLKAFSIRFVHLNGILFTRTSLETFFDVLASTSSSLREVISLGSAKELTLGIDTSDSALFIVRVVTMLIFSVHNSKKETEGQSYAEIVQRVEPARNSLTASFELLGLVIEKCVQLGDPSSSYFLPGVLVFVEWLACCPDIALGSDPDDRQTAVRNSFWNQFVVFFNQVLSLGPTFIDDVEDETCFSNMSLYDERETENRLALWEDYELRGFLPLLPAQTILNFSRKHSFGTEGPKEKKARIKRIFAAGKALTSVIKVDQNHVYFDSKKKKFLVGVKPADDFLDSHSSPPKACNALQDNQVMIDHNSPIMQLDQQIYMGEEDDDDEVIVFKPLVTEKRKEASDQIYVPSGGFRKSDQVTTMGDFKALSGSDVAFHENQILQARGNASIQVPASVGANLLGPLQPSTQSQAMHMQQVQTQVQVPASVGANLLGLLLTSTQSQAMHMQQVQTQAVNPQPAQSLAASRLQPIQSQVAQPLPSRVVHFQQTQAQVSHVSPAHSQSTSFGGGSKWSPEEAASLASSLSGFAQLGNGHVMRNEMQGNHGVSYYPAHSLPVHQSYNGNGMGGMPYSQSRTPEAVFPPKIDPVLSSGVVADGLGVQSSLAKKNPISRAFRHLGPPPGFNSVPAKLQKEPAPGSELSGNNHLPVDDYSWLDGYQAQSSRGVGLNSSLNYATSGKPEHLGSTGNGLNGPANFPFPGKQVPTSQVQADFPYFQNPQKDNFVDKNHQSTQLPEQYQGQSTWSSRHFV
Assay: affinity purification with mass spectrometry; SMG7-MYC precipitated with EZview Red Anti-c-Myc Affinity Gel from extracts of leaves, stems and inflorescences of 35-day-old SMG7-MYC plants, wild type as control; 50 mM Tris-HCl pH 7.5, 150 mM NaCl, 0.1% Nonidet P-40, 10% glycerol, with phosphatase inhibitors; LC-MS/MS of gel bands

Chains of the proteins cited; added tags and fusions are not shown.
UniProt P41376: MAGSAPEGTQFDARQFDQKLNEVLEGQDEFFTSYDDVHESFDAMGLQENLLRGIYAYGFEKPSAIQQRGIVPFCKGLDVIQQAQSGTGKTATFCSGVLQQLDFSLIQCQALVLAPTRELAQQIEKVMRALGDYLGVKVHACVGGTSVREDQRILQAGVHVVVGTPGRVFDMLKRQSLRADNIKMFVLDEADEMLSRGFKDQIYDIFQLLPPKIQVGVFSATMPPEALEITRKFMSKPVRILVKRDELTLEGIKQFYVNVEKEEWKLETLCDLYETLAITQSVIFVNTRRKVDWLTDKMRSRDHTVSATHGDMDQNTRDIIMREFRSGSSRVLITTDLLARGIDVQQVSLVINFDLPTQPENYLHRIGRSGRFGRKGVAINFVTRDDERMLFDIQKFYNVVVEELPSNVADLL
UniProt P41377: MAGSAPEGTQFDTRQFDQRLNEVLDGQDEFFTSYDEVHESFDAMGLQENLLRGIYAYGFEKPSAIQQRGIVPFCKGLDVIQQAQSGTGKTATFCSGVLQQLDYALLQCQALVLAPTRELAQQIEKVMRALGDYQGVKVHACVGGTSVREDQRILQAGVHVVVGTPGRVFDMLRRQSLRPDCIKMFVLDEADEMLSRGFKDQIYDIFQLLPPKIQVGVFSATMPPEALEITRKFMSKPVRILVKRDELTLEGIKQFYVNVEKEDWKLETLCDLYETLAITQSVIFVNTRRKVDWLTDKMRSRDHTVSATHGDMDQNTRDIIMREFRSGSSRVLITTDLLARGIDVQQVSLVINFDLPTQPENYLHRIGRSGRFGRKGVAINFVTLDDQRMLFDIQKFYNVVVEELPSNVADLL

binding	Substance
binds	eIF4A1 (from UniProt P41376 1-412)
binds	eIF4A2 (from UniProt P41377 1-412)
